# Source: publication PMC7280309 (Nature Communications, 2020)
# By UniProt entry, the sequences of proteins in these tests, tags left out.
# UniProt Q5ZYC6: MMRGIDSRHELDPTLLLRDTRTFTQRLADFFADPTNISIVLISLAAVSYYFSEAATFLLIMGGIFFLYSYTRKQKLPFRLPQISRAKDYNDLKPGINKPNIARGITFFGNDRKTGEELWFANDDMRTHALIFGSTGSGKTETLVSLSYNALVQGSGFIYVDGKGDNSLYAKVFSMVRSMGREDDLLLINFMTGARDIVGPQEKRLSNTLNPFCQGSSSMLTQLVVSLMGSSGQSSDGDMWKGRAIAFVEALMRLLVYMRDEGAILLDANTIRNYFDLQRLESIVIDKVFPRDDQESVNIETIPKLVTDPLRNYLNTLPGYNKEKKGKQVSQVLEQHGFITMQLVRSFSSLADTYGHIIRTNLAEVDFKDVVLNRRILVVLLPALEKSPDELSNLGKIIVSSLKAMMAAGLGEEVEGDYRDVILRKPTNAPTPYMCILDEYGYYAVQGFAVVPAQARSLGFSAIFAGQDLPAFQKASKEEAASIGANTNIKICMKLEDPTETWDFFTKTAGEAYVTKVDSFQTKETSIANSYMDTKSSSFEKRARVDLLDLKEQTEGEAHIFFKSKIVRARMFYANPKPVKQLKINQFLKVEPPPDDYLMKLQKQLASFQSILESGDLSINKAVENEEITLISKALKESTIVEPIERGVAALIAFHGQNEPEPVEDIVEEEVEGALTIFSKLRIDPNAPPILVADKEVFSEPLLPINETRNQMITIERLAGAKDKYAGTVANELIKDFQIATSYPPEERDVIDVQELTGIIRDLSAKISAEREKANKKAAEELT
# B1: DotY (natural protein)
# chain: MPKYTLPTRDALLKAMQVGETSIEAAEYMATRFEQILTKAKLLPECNDMLEKIKEYAQFVKFKLLSSAQVWSGQERPTSDYQNTQENKAEFLASHLEGLPSGLKLEVAIGDDAKILRGFSSNGKMVEGDQLKTMDGLLEGWLAKNSLAISGGAVVKIDNTGNQTKVDPQEIRQLINDSEKGVAKYFADKGVGMEVAQRTYQEPKALETKREEIRQEIESGAEAPTTQSIR
# Target: DotL with a C-terminal Strep-tag (Legionella pneumophila) (UniProt Q5ZYC6)
# Assay: affinity purification with mass spectrometry
binder,measurement,value
B1,binding,binds

# Results are given in words; binding and its absence hold for the method and conditions named. In cells and extracts the contact can be indirect. A yes stands for co-enrichment or nearness to the bait. Other partners may have been found.
